Test results: paper PMC8592748
No constants are given. Whether binding was seen depends on the method and setting. Binding seen in cells or lysates may run through a third protein. Some binding calls cover weakened binding; strength is not graded here.

Amino acid sequences for entries named in this document (tags omitted).
UniProt Q8R4B8: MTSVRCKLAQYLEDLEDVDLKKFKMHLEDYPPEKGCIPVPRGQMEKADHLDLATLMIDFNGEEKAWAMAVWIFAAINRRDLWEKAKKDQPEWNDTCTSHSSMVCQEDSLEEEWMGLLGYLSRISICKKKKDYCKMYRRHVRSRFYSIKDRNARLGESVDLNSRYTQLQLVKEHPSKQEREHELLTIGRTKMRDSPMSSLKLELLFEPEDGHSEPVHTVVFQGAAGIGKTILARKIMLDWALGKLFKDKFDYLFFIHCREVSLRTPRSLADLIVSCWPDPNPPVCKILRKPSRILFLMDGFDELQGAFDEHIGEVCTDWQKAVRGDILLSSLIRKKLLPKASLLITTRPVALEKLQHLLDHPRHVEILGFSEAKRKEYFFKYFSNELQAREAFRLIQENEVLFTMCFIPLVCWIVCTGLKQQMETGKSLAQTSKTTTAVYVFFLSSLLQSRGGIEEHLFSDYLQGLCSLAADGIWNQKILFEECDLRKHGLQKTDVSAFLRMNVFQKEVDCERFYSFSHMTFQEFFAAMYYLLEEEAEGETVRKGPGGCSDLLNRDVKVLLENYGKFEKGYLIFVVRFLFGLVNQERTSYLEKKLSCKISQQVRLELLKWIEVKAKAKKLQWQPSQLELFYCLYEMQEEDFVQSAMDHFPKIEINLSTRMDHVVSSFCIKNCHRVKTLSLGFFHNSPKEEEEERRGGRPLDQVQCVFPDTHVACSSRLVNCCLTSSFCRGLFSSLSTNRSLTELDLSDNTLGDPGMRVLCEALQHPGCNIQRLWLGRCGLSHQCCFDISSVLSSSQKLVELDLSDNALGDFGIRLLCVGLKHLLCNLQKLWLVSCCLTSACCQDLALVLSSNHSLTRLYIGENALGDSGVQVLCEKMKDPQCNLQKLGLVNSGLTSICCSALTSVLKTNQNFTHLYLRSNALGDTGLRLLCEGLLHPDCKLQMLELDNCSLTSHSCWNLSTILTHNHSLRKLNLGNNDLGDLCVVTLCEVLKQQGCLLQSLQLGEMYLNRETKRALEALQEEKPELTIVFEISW

Biological target: nucleotide-binding domain leucine-rich repeat and pyrin domain-containing receptor 3 (NLRP3) (mouse (endogenous in RAW264.7 and primary peritoneal macrophages)) (UniProt Q8R4B8)
Test: co-IP; endogenous TXNIP or NLRP3 immunoprecipitated from lysates of RAW264.7 cells or primary peritoneal macrophages (control, Mtb H37Ra 12 h, Mtb + 100 uM baicalin 12 h); Protein A/G agarose/sepharose beads, 4°C; immunoblot for the other protein

binding: binds
B1: Thioredoxin-interacting protein (TXNIP) (protein, UniProt Q8BG60 1-397)
chain: MVMFKKIKSFEVVFNDPEKVYGSGEKVAGRVIVEVCEVTRVKAVRILACGVAKVLWMQGSQQCKQTLDYLRYEDTLLLEEQPTAGENEMVIMRPGNKYEYKFGFELPQGPLGTSFKGKYGCVDYWVKAFLDRPSQPTQEAKKNFEVMDLVDVNTPDLMAPVSAKKEKKVSCMFIPDGRVSVSARIDRKGFCEGDDISIHADFENTCSRIVVPKAAIVARHTYLANGQTKVFTQKLSSVRGNHIISGTCASWRGKSLRVQKIRPSILGCNILKVEYSLLIYVSVPGSKKVILDLPLVIGSRSGLSSRTSSMASRTSSEMSWIDLNIPDTPEAPPCYMDIIPEDHRLESPTTPLLDDVDDSQDSPIFMYAPEFQFMPPPTYTEVDPCVLNNNNNNNNVQ
